The text below walks through data of doi:10.1101/2024.11.15.622802.

No constants are given. Whether binding was seen depends on the method and setting. In cells and extracts the contact can be indirect. A yes stands for co-enrichment or nearness to the bait. Other partners may have been found. Where a sequence is shown, tags or fusion partners need not be part of it.

Assay [1] concerns the target T1, eGFP-AMSH2 (Arabidopsis AMSH2) (Arabidopsis thaliana) (UniProt Q6NKP9).
T1 sequence: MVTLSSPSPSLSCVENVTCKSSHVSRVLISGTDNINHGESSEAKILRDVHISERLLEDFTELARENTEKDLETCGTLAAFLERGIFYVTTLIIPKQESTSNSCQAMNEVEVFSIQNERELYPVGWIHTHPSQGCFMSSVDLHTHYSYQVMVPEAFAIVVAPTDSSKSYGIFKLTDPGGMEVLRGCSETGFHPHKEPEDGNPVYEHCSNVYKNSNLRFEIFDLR
Description: affinity purification with mass spectrometry.

The target of assay [2] is Flag-Mp10 (Myzus persicae). Description: affinity purification with mass spectrometry.

For Flag-Mp10 (Myzus persicae), in assay [1], the binding result is “binds”.

B1: eGFP-AMSH2 (Arabidopsis AMSH2) (enzyme, UniProt Q6NKP9 1-223)
chain: T1 sequence
Take B1: in assay [2], the binding result is reported as “binds”.
